Test results as given in US9963474B2, “Mitochondria-targeted dicarbonyl sequestering compounds” (MEDICAL RESEARCH COUNCIL, priority 2013, dated 2018).

System: isolated mitochondria (RLM)
Assay: Uptake by isolated mitochondria measured with TPP-selective electrode
Parameters: species or system rat

With `Nc1ccc(OCCCCCC[P+](c2ccccc2)(c2ccccc2)c2ccccc2)cc1N` [MitoG, (6-(3,4-Diaminophenoxy)hexyl)triphenylphosphonium chloride] the “membrane potential-dependent uptake into mitochondria” value (RLM 1 mg protein/ml, succinate, 37° C.) was about 2 nmol/mg protein, the concentration within mitochondria (assuming matrix volume 0.5 μl/mg protein, external concentration ~2 μM) was about 4 mM and the accumulation within mitochondria (matrix versus external concentration) was about 2000 fold.
